Assay in all cases: binding assay
In data set [1] the target is TDP-43 aggregates in ALS tissue or CSF (Homo sapiens) (UniProt Q13148). The settings on record: RNA with 2'-F cytosines at positions 1 and 9, 3'-Atto590 (library chemistry); imaging of aggregates in ALS motor cortex and CSF; protein in an extract; label: Atto590; variant of Apt-1.
For the next data set, the target named is alpha-synuclein (UniProt P37840). The conditions noted are these: RNA with 2'-F cytosines at positions 1 and 9, 3'-Atto590 (library chemistry); aggregates and oligomers; TIRF imaging; purified recombinant protein; label: Atto590; variant of Apt-1.
Data set [2] deals with TDP-43 construct (RRM1-2) (UniProt Q13148). The settings on record: RNA with 2'-F cytosines at positions 1 and 9, 3'-Atto590 (library chemistry); AD-PAINT TIRF imaging of aggregates, 1 nM aptamer in PBS; purified recombinant protein; label: Atto590; variant of Apt-1.
The next data set deals with Amyloid-beta-42 (UniProt P05067). The conditions noted are these: RNA with 2'-F cytosines at positions 1 and 9, 3'-Atto590 (library chemistry); aggregates and oligomers; TIRF imaging; purified recombinant protein; label: Atto590; variant of Apt-1.
The target of data set [3] is TDP-43 full-length eGFP fusion (UniProt Q13148). The conditions noted are these: 2'-F at cytosines 1 and 9; HEK293T confocal co-localisation, Manders' overlap 0.85-0.89; protein in cells; protein details: eGFP (N-terminal, pEGFP C1); label: 3'-Atto590; variant of Apt-1.

For some assays here: Results from cells or extracts need not show a direct contact. For some assays here: For at least one entry, the source does not settle the construct or the ends of the probe. For some assays here: A negative result means that nothing was seen under these conditions.

This note sets out measurements from patent US20250327081.

Take CGGUGUUGCU [Apt-1 Atto590]: the binding result in data set [1] was “binds”; in the data set with alpha-synuclein, “no binding”; in data set [2], “binds”; in the data set with Amyloid-beta-42 it was “no binding”.
For the sequence CGGUGUUGCU [Apt-1 2'-F Atto590], the binding result in data set [3] is “binds”.
